Test results from PubChem BioAssay AID2685 (National Center for Advancing Translational Sciences (NCATS), 2010).
This is one part of the list. The main result of the screen is listed elsewhere. These columns were measured beside it and carry no call. Compounds called inactive in the main read-out are mostly missing here. Words in brackets tell the shape of the fitted curve; partial curves, single points and poor fits give uncertain potencies.

Assay: qHTS Assay for Lipid Storage Modulators in Drosophila S3 Cells;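 for cell number change: cells counted by Cell Tracker Red CMTPX staining in the red channel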
Conditions: BODIPY lipid droplet fluorescence, 18-24 h; for cell number change: measured here: cell count max response, cells fed with added oleic acid
Summary of the method: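 Drosophila S3 cells loaded with oleic acid (400 uM, as added) and compounds at several concentrations; lipid droplets imaged by 488-nm laser-scanning cytometry, 500–530 nm intensity and object ratio to cell channel. Percent activity normalized to 20 uM Triacsin C.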

[1] = measured here: cell number channel AC50, cells fed with added oleic acid
[2] = measured here: lipid fluorescence (Fed channel) AC50, cells fed with added oleic acid

Row | SMILES | AC50 [1] | AC50 [2] | cell number change [%]
1 | CC1CCN(C(=O)CSc2nc3ccccc3[nH]2)CC1 | 7.31 µM [falling, single point] | 6.51 µM [falling, partial curve] | 
2 | COc1ccc(NC(=O)CSCC(=O)N2c3ccccc3CCc3ccccc32)cc1 | 2.31 µM [falling, partial curve, poor fit] | 10.3 µM [rising, partial curve] | -30.2
3 | O=C(Nc1ccc(N2CCCCC2)cc1)c1ccccn1 | 2.91 µM [rising, full curve] | 4.11 µM [rising, full curve] | 58.8
4 | COc1ccc(NS(=O)(=O)c2ccc(-c3coc(C)n3)cc2)cc1 |  | 0.58 µM [rising, single point] | -13
5 | CCOC(=O)C1CCN(C(=O)COC(=O)c2ccc([N+](=O)[O-])o2)CC1 | 25.9 µM [falling, partial curve, poor fit] |  | -37.6
6 | Cc1cc(C)nc(/N=C2\NC(=O)CC(C(=O)O)N2c2ccc(F)c(Cl)c2)n1 (stereo not drawn) |  |  | 1.94
7 | COc1ccc(-c2cc(C(=O)NCc3cn(C)nc3C)c3ccccc3n2)cc1OC |  | 2.59 µM [rising, single point] | 21.5
8 | Cc1nc(N2CCC(C(N)=O)CC2)c2nnn(Cc3ccccc3)c2n1 |  | 1.64 µM [rising, partial curve] | 24.2
9 | Nc1ccc2c(c1)Oc1ccccc1C=C2 |  | 29.1 µM [rising, single point] | 20.3
10 | CCOC(=O)C1=C(C(F)(F)F)Nc2ncnn2C1c1ccc(OC)c(OC)c1OC (stereo not drawn) |  | 0.00461 µM [falling, full curve, poor fit] | 0.157
11 | Cc1ccc(-c2nnc(CCC(=O)NCC3C4CC5CC(C4)CC3C5)o2)s1 (stereo not drawn) | 16.4 µM [falling, partial curve] | 14.6 µM [falling, partial curve] | -43.6
12 | Cc1ccc(C(=O)N/C(=C\c2cccc([N+](=O)[O-])c2)C(=O)OCN2C(=O)c3ccccc3C2=O)cc1 | 29.1 µM [rising, single point] | 29.1 µM [rising, partial curve] | 57.5
13 | CCOC(=O)C1=C(C)NC(SCC(N)=O)=C(C#N)C1c1ccncc1 (stereo not drawn) |  |  | -29.6
14 | O=C(COC(=O)CCc1ccccc1)Nc1cc([N+](=O)[O-])ccc1F |  | 29.1 µM [rising, single point] | -5.41
15 | Cn1nc([N+](=O)[O-])nc1Sc1nnnn1-c1cccc(C(=O)O)c1 | 0.82 µM [falling, single point] | 0.731 µM [falling, partial curve, poor fit] | 14.9
16 | CCCCOP(=O)(c1ccc(N(C)C)cc1)C(O)c1cc(OC)c(OC)c(OC)c1 (stereo not drawn) |  | 2.31 µM [falling, single point] | -11.1
17 | O=C(NC(=S)Nc1cccc(Cl)c1Cl)C1CC1 |  |  | -27.8
18 | CCOC(=O)c1c(NC(=O)C2=C(C)NC(=S)NC2c2ccc(C)cc2)sc(C)c1C (stereo not drawn) |  | 29.1 µM [falling, single point] | -9.5
19 | C(=N\NC1=Nc2cccc3cccc1c23)/c1ccccn1 | 4.61 µM [falling, partial curve] |  | -37.6
20 | CCOC(=O)c1c(-c2ccccc2)csc1NC(=O)CSc1nncs1 |  | 0.0651 µM [rising, full curve, poor fit] | 0.666

Row | SMILES | AC50 [1] | AC50 [2] | cell number change [%]
21 | CCCCNC(=S)NNC(=O)c1c(C)nc2ccccn12 | 6.51 µM [rising, full curve] | 5.17 µM [rising, full curve] | 87.3
22 | C[C@H](NC(=O)c1ccccc1)C(=O)N1CCN(c2ccccc2)CC1 | 6.51 µM [rising, single point] |  | 
23 | COc1ccc(OCC(=O)NC(=S)NNC(=O)COc2ccc(Br)cc2Cl)cc1 | 0.82 µM [falling, full curve] | 0.92 µM [falling, full curve] | -49.6
24 | O=C(CC1C(=O)OCN1C(=O)OCc1ccccc1)OCC(=O)c1ccccc1 (stereo not drawn) |  |  | 0.337
25 | CCOC(=O)C1CCN(C(=O)Cc2cccs2)CC1 |  |  | 4.18
26 | CCOc1ccc(NC(=O)Nc2cc(C)ccc2OC)cc1 |  | 18.4 µM [falling, single point] | -28.7
27 | Cc1nc(-c2cccc(S(=O)(=O)N3CC(C)CC(C)C3)c2)cs1 (stereo not drawn) |  | 0.184 µM [rising, partial curve, poor fit] | -18.3
28 | Cc1nc(N2CCN(c3ccccc3)CC2)nc2c1C(=O)CC(c1ccccc1)C2 (stereo not drawn) |  | 5.17 µM [rising, single point] | 4.14
29 | Cc1cccc(C)c1NC(=O)CN1C(=O)COc2ccccc21 |  |  | -1.47
30 | CCCCC(=O)NC1(C(F)(F)F)C(=O)N(CC(C)C)C2=C1C(=O)CC(C)(C)C2 (stereo not drawn) |  | 20.6 µM [rising, single point] | 22.3
31 | O=C(NCC(c1ccco1)N1CCOCC1)c1ccc(F)cc1 (stereo not drawn) |  | 4.61 µM [falling, partial curve] | -20.4
32 | Cc1cccc(C)c1OCCOC(=O)c1n[nH]c2ccccc12 | 5.8 µM [falling, partial curve] | 1.3 µM [falling, partial curve] | -50.1
33 | O=c1[nH]c(N2CCCCC2)nc2c1CCCC2 | 0.731 µM [falling, partial curve] | 6.51 µM [falling, single point] | -3.95
34 | O=C(Nc1cccc(S(=O)(=O)N2CCCC2)c1)c1ccc2c(c1)OCO2 |  | 0.0731 µM [rising, full curve] | 0.642
35 | O=C(Nc1ccccc1)c1ncoc1-c1ccc(Cl)cc1 | 32.6 µM [rising, single point] |  | 31
36 | CSc1nc(-c2ccccc2)c2cc(Cl)ccc2n1 | 0.58 µM [falling, full curve] | 0.651 µM [falling, full curve] | -58.6
37 | CCOc1cc(/C=C(/C#N)c2ccc(F)cc2)ccc1OCc1ccc(C(=O)O)o1 | 0.82 µM [rising, single point] | 29.1 µM [rising, single point] | -3.73
38 | Cc1cccc(CS(=O)(=O)c2ncc(Cl)c(C(=O)Nc3nnc(C(C)C)s3)n2)c1 |  |  | 5.28
39 | O=C1C2CCCN2C(=O)N1CCCCN1CCN(c2ccccc2)CC1 (stereo not drawn) |  | 14.6 µM [falling, single point] | -3.96
40 | COc1ccc(NS(=O)(=O)c2ccc3nc(COc4cccc5ccccc45)[nH]c3c2)cc1 |  | 1.46 µM [rising, partial curve] | -5.21

Row | SMILES | AC50 [1] | AC50 [2] | cell number change [%]
41 | N#Cc1c(N)nc2c3c(sc(=N)c2c1N)NC(=O)CC3c1c(F)cccc1Cl (stereo not drawn) | 5.8 µM [falling, single point] | 6.51 µM [falling, single point] | 10.8
42 | CCCCn1nc(C(=O)NC2=NCCS2)c2ccccc2c1=O |  | 0.82 µM [rising, full curve, poor fit] | 27.4
43 | O=C(NC1CCSC1=O)c1cccc(C(=O)NC2CCSC2=O)c1 (stereo not drawn) |  | 23.1 µM [falling, single point] | 0.527
44 | CCOC(=O)c1sc(NC(=O)/C=C/c2cnn(C)c2C)c(C(=O)OC(C)C)c1C | 0.517 µM [rising, full curve] | 0.326 µM [rising, full curve] | 
45 | COc1ccccc1NC(=O)NNC(=O)c1ccc(-c2ccccc2)cc1 |  | 15.8 µM [rising, partial curve] | 17.6
46 | O=C(N/N=C/c1ccc(F)cc1)c1ccc(Br)cc1 |  | 29.1 µM [falling, single point] | 12.9
47 | O=S(=O)(c1cccc(-c2nnco2)c1)N1CCOCC1 |  |  | 99.4
48 | CCN1CCN(C(=O)c2cc(S(=O)(=O)N3CC(C)CC(C)C3)ccc2Cl)CC1 (stereo not drawn) | 11.6 µM [rising, single point] |  | 35
49 | COc1cc(C)nc(N(Cc2ccccc2)S(=O)(=O)c2ccccc2)n1 |  | 13 µM [rising, partial curve, poor fit] | 2.11
50 | COC1CCCN(C(=O)c2ccc3nc(Cc4cccc(Cl)c4)oc3c2)C1 (stereo not drawn) |  | 32.6 µM [falling, single point] | -12.5
51 | CCCN(CCC)S(=O)(=O)c1ccc(NS(=O)(=O)c2ccc(F)cc2)cc1 |  |  | -10.8
52 | Cc1ccc(NS(=O)(=O)c2ccc(NC(=O)C3CC3)cc2)c(C)c1 | 5.17 µM [falling, single point] |  | 
53 | NC(=O)CC(c1ccccc1)c1ccc2c(c1)OCO2 (stereo not drawn) |  | 29.1 µM [rising, single point] | -23.9
54 | Cc1ccc(C2(C)NC(=O)N(CC(=O)NNC(=O)c3ccccc3F)C2=O)cc1 (stereo not drawn) |  | 6.51 µM [falling, single point] | -25.2
55 | CC(c1nnc(SCC(=O)c2c(N)n(C3CC3)c(=O)[nH]c2=O)n1-c1ccc(F)cc1)N(C)C (stereo not drawn) |  |  | -21.5
56 | CC/C(=C\c1oc2cc3ccccc3cc2[n+]1CC)Nc1ccccc1 | 0.517 µM [falling, full curve] |  | -32.3
57 | COc1ccccc1CNC(=O)N1CCN(S(=O)(=O)c2ccc(C)cc2)CC1 |  |  | 19.8
58 | Cc1[nH]c2ccccc2c1C(=O)CSc1nccc(=O)[nH]1 | 0.00517 µM [rising, full curve, poor fit] |  | 29
59 | C=CCc1cc(C)ccc1OCCCn1ccnc1 |  | 16.4 µM [falling, single point] | -28
60 | COc1ccc(CCCc2nnc(SCc3nc4ccccc4c(=O)[nH]3)n2C)cc1 |  |  | -4.74

Grouped by structure, the entries above with a CF3 group (two)
Row | SMILES | AC50 [1] | AC50 [2] | cell number change [%]
10 | CCOC(=O)C1=C(C(F)(F)F)Nc2ncnn2C1c1ccc(OC)c(OC)c1OC (stereo not drawn) |  | 0.00461 µM [falling, full curve, poor fit] | 0.157
30 | CCCCC(=O)NC1(C(F)(F)F)C(=O)N(CC(C)C)C2=C1C(=O)CC(C)(C)C2 (stereo not drawn) |  | 20.6 µM [rising, single point] | 22.3
